Assay results as given in patent publication US20200199216A1.
No constants are given. Whether binding was seen depends on the method and setting. Binding calls can cover weak binding; strength is not graded here.

Experiments:
[1] = biological target: equine IL17A-polyHis (equine); assay: Western blot (earlier result retold in Example 15)
[2] = biological target: equine IL17A-polyHis (equine); assay: Western blot, 0.6 µg protein, goat anti-mouse IgG-HRP
[3] = biological target: equine IL17A-polyHis (equine); assay: Western blot: 0.6 µg protein per lane, SDS-PAGE, PVDF, goat anti-mouse IgG-HRP
[4] = biological target: equine IL17A-polyHis (equine); assay: BLI (Octet); biotinylated equine IL17A-polyHis on streptavidin sensors, antibody 20 µg/mL

binding [1]: binds
binding [2]: binds
binding [3]: binds
binding [4]: binds
B1: mouse monoclonal antibody Clone C (antibody, mouse IgG1, V domains shown)
VH: EVQLVESGGGLVQPGGSLKLSCAASGFTFSSYGMSWVRQTPDKRLELVAIINSNGGSTYYPDSVKGRFTISRDNDKNSLYLQMSSLKSEDTAMYYCVRCHYDYERVFDYWGQGTTLTVSS
VL: DIQMTQSSSYLSVSLGGRVTITCKANDHINNWLAWYQQKPGNAPRLLISGSTSLETGVPSRFSGSGSGKDYTLSITSLQTEDVATYYCQQYWSTPFTFGSGTKLEIK
